The source of these data is the supplement of paper PMC9233669.

Variants at the floor of the assay are shown more often than the library holds them.

In one series the test system is biotinyl-Ile-oxazolone. Nature of the series: self-aminoacylation, catalytic enhancement (BIO) (fold over background); higher = more active; k-Seq, kA / k0A0; sequences stand for … in GGGAAUGGAUCCACAUCUACGAAUUC…UUCACUGCAGACUUGACGAAGCUG
In outline:
(§1)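 The uncatalyzed rate is the low-activity peak of a bimodal Gaussian fit, and catalytic enhancement is median kA divided by it. The kA values came from pseudo-first-order fits, with 1000 bootstraps, of per-sequence fraction reacted measured by streptavidin capture, triplicate qPCR and Illumina sequencing. Mutagenized RNA pools with a 21-nt variable region (0.43 μM) were reacted with each biotinyl-aminoacyl-oxazolone at 2–1250 μM in 50 μL HEPES/NaCl/KCl/MgCl2/CaCl2 buffer with 5% acetonitrile, pH 6.9–7.0, for 90 minutes at room temperature.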

In another series the test system is biotinyl-Met-oxazolone. Put plainly: self-aminoacylation, catalytic enhancement (BMO) (fold over background); higher = more active; k-Seq, kA / k0A0; sequences stand for … in GGGAAUGGAUCCACAUCUACGAAUUC…UUCACUGCAGACUUGACGAAGCUG
In outline:
as §1

In a further series the test system is biotinyl-Val-oxazolone. Put plainly: self-aminoacylation, catalytic enhancement (BVO) (fold over background); higher = more active; k-Seq, kA / k0A0; sequences stand for … in GGGAAUGGAUCCACAUCUACGAAUUC…UUCACUGCAGACUUGACGAAGCUG
In outline: as §1

On to “AUUUCCCUGGUCAUCAAGUGA [Fam2.1 aminoacylation ribozyme variant]”, for which the results for the self-aminoacylation in the series on biotinyl-Ile-oxazolone, with biotinyl-Met-oxazolone and with biotinyl-Val-oxazolone were 1.53, 1.95 and 1.7, respectively.
The matching figures for “AUUACCCUGGACACCGAGUGA [Fam2.1 aminoacylation ribozyme variant]”: 2.15, 4.14 and 1.83.
As to “CUAUUUCAAACAAUCGGUCUA [Fam1A.1 aminoacylation ribozyme variant]”, the figures for the self-aminoacylation in the series with biotinyl-Ile-oxazolone and in the series on biotinyl-Val-oxazolone were 0.713 and 0.588, respectively.
For the sequence “AUUACCCUGGUCAUCGUGCGA [Fam2.1 aminoacylation ribozyme variant]”, the self-aminoacylation came out at 1.81 with biotinyl-Ile-oxazolone, 1.58 in the series with biotinyl-Met-oxazolone and 1.92 with biotinyl-Val-oxazolone.
Turning to “AUUCACCUGGGUCCUCGGGUG [Fam2.2 aminoacylation ribozyme variant]”, in the series with biotinyl-Ile-oxazolone, the self-aminoacylation was 4.33.
On the same count and under the same terms, the result for “AUUCACCUAGAUCAUAGGGUG [Fam2.2 aminoacylation ribozyme variant]” reads 1.98.
“CCACACUUCAUCCAAUCGGUC [Fam1B.1 aminoacylation ribozyme variant]”: the self-aminoacylation with biotinyl-Ile-oxazolone was 0.883; in the series with biotinyl-Val-oxazolone, 0.912.
As for “AUUCACGUAGGUCAGCGGGUG [Fam2.2 aminoacylation ribozyme variant]”, the self-aminoacylation in the series on biotinyl-Ile-oxazolone is 2.48; with biotinyl-Met-oxazolone, 2.52; in the series with biotinyl-Val-oxazolone it was 2.48.
As for “AUUCACCAAGGUUAUCGGGUG [Fam2.2 aminoacylation ribozyme variant]”, the self-aminoacylation was 4.45 with biotinyl-Ile-oxazolone, 7.8 in the series with biotinyl-Met-oxazolone and 4.4 with biotinyl-Val-oxazolone.
Regarding “AUUCACCUAGGUCAUCGCGUG [Fam2.2 aminoacylation ribozyme variant]”, the results for the self-aminoacylation with biotinyl-Ile-oxazolone and in the series with biotinyl-Val-oxazolone were 7.1 and 7.35, respectively.
For the sequence “AUUACCCUGAUCAGCGAGUGA [Fam2.1 aminoacylation ribozyme variant]”, in the series with biotinyl-Ile-oxazolone, the self-aminoacylation was 1.94.
As to “CUACUUCAAAGAAUCGGCCUG [Fam1A.1 aminoacylation ribozyme variant]”, the self-aminoacylation with biotinyl-Ile-oxazolone is 1.52; in the series on biotinyl-Met-oxazolone, 1.38; in the series with biotinyl-Val-oxazolone it was 1.73.
The matching figures for “CUACUUCAAAGUAUCGGUCUG [Fam1A.1 aminoacylation ribozyme variant]”: 0.979, 0.824 and 0.975.
For the sequence “AUCACCCUGGUCAUCAAGUGA [Fam2.1 aminoacylation ribozyme variant]”, the self-aminoacylation in the series on biotinyl-Ile-oxazolone came out at 1.74.
With “AACUUUGCUCAUAGUCGCAAG [Fam3.1 aminoacylation ribozyme variant]”, in the series with biotinyl-Val-oxazolone, the self-aminoacylation turned out to be 1.91.
With “GCACUCUUCAAGCAAUCGGUC [Fam1B.1 aminoacylation ribozyme variant]”, the self-aminoacylation with biotinyl-Ile-oxazolone was found to be 1.75; in the series with biotinyl-Met-oxazolone it was 1.38; in the series with biotinyl-Val-oxazolone it was 1.59.
In the case of “AUUAACCUAGUUCAUCGGGUG [Fam2.2 aminoacylation ribozyme variant]”, the self-aminoacylation was found to be 1.78 with biotinyl-Ile-oxazolone and 1.6 in the series with biotinyl-Val-oxazolone.
The matching figures for “CCACACUUCCAGCAAUCGUUC [Fam1B.1 aminoacylation ribozyme variant]”: 1.09 and 1.05.
“AAGUUUGCUAAUAGUAGCAAU [Fam3.1 aminoacylation ribozyme variant]”: the self-aminoacylation with biotinyl-Ile-oxazolone worked out at 1.32; in the series on biotinyl-Met-oxazolone, 1.57; with biotinyl-Val-oxazolone it was 1.32.
As to “CCACACUUCAAUCAAUCGGCC [Fam1B.1 aminoacylation ribozyme variant]”, the self-aminoacylation with biotinyl-Ile-oxazolone turned out to be 1.81; in the series with biotinyl-Met-oxazolone it was 1.39.
Take “AUUACCCUGGUCAUCUCGUGA [Fam2.1 aminoacylation ribozyme variant]”: the self-aminoacylation in the series with biotinyl-Ile-oxazolone worked out at 1.43; in the series with biotinyl-Val-oxazolone, 1.55.
As for “AUUACCCUGGUCGUGGAGUGA [Fam2.1 aminoacylation ribozyme variant]”, the self-aminoacylation with biotinyl-Ile-oxazolone is 1.45; with biotinyl-Val-oxazolone it was 1.26.
Turning to “AUUACUCUGGCCAUCGAGUGA [Fam2.1 aminoacylation ribozyme variant]”, the self-aminoacylation with biotinyl-Val-oxazolone came out at 1.66.
Take “AUUCACCUAGGUCAUCGGCUC [Fam2.2 aminoacylation ribozyme variant]”: the self-aminoacylation in the series with biotinyl-Ile-oxazolone was 2.5; with biotinyl-Met-oxazolone, 2.14; in the series on biotinyl-Val-oxazolone, 2.22.
Regarding “CCACACUUCAUGCAAUCGGUA [Fam1B.1 aminoacylation ribozyme variant]”, the self-aminoacylation with biotinyl-Ile-oxazolone came out at 0.681.
For “AAGUCUGCUAAUAGUCACAAG [Fam3.1 aminoacylation ribozyme variant]”, the self-aminoacylation in the series with biotinyl-Ile-oxazolone is 1.24; in the series with biotinyl-Met-oxazolone, 1.95; in the series on biotinyl-Val-oxazolone, 1.25.
For “CAACUUCAAACAAUCGGUCGG [Fam1A.1 aminoacylation ribozyme variant]”, the self-aminoacylation came to 1.78 in the series on biotinyl-Ile-oxazolone and 1.69 in the series with biotinyl-Val-oxazolone.
With “CCAGACUUCAAGCAAUCCGUC [Fam1B.1 aminoacylation ribozyme variant]”, the self-aminoacylation is 1.67 in the series on biotinyl-Ile-oxazolone, 1.47 in the series on biotinyl-Met-oxazolone and 1.58 in the series with biotinyl-Val-oxazolone.
Regarding “AGGUUUGCUAGUAGUCGCAAG [Fam3.1 aminoacylation ribozyme variant]”, the self-aminoacylation turned out to be 0.918 with biotinyl-Ile-oxazolone and 0.894 in the series with biotinyl-Val-oxazolone.
For the sequence “AAUACCCUGUUCAUCGAGUGA [Fam2.1 aminoacylation ribozyme variant]”, the self-aminoacylation in the series on biotinyl-Ile-oxazolone was 1.85.
As to “AUUACUCUGUUCAUCGAGUGA [Fam2.1 aminoacylation ribozyme variant]”, the self-aminoacylation with biotinyl-Ile-oxazolone is 1.9; with biotinyl-Val-oxazolone, 1.94.
The like results for “AUUCACCUUGGUCAUCGAGUG [Fam2.2 aminoacylation ribozyme variant]” were, in that order, 2.69 and 2.49.
The like results for “CUGCUUCAAACAAUCGGUGUG [Fam1A.1 aminoacylation ribozyme variant]” were, in that order, 1.92 and 1.8.
The matching figures for “GUUACCCUGGUCGUCGAGUGA [Fam2.1 aminoacylation ribozyme variant]”: 1.5 and 1.6.
On to “AUGCACCUAGGUCAUCGGGAG [Fam2.2 aminoacylation ribozyme variant]”, for which the self-aminoacylation in the series on biotinyl-Ile-oxazolone was determined as 1.56; in the series on biotinyl-Val-oxazolone, 1.51.
The matching figures for “AUUACCCUGGUCAUCGAGGUA [Fam2.1 aminoacylation ribozyme variant]”: 2.38 and 3.16.
For the sequence “AACUUUGCUAACAGUCGCAAG [Fam3.1 aminoacylation ribozyme variant]”, the self-aminoacylation in the series with biotinyl-Val-oxazolone was 1.95.
Turning to “AUCACCCUGGUCAUCGAGUGC [Fam2.1 aminoacylation ribozyme variant]”, the figures for the self-aminoacylation in the series with biotinyl-Ile-oxazolone and with biotinyl-Val-oxazolone were 1.56 and 1.54, respectively.
Turning to “CCAGACGUCAAGCAAUCGGUC [Fam1B.1 aminoacylation ribozyme variant]”, the self-aminoacylation in the series on biotinyl-Ile-oxazolone worked out at 1.24; in the series with biotinyl-Met-oxazolone, 1.52; in the series on biotinyl-Val-oxazolone, 1.99.
Take “AUUACCCUUGUCAUCGUGUGA [Fam2.1 aminoacylation ribozyme variant]”: the self-aminoacylation is 1.45 in the series with biotinyl-Ile-oxazolone and 1.7 in the series with biotinyl-Val-oxazolone.
The matching figures for “AUUAACCUAGGUCAUCGCGUG [Fam2.2 aminoacylation ribozyme variant]”: 4.57 and 4.66.
As to “AUUCACCUAGGACAUCGGGUA [Fam2.2 aminoacylation ribozyme variant]”, the self-aminoacylation with biotinyl-Val-oxazolone stood at 1.96.
For “AUUCUCCCAGGUCAUCGGGUG [Fam2.2 aminoacylation ribozyme variant]”, the self-aminoacylation with biotinyl-Ile-oxazolone was 6.87; with biotinyl-Val-oxazolone, 6.91.
Turning to “AUUCACCUUGGUCAUCUGGUG [Fam2.2 aminoacylation ribozyme variant]”, the self-aminoacylation in the series on biotinyl-Ile-oxazolone amounted to 1.91.
As to “CUACCUCAACCAAUCGGUCUG [Fam1A.1 aminoacylation ribozyme variant]”, the self-aminoacylation in the series with biotinyl-Ile-oxazolone worked out at 0.766; in the series on biotinyl-Val-oxazolone, 0.891.
The like results for “AUCACCCUGGUCAUCGAGUUA [Fam2.1 aminoacylation ribozyme variant]” were, in that order, 1.78 and 1.74.
In the case of “AUUACCCUGGUCCUGGAGUGA [Fam2.1 aminoacylation ribozyme variant]”, the self-aminoacylation with biotinyl-Val-oxazolone amounted to 1.79.
In the case of “AUGACCCUGGUCAUCAAGUGA [Fam2.1 aminoacylation ribozyme variant]”, the self-aminoacylation stood at 1.3 in the series on biotinyl-Ile-oxazolone and 1.46 in the series with biotinyl-Val-oxazolone.
In the case of “AUUCACCUAGGUAACCGGGUG [Fam2.2 aminoacylation ribozyme variant]”, the self-aminoacylation in the series with biotinyl-Ile-oxazolone was 1.57; in the series with biotinyl-Val-oxazolone it was 1.62.
The like results for “AGUACCCUGGUCAUCGAUUGA [Fam2.1 aminoacylation ribozyme variant]” were, in that order, 1.09 and 0.981.
The like results for “CUUCUGCAAACAAUCGGUCUG [Fam1A.1 aminoacylation ribozyme variant]” were, in that order, 0.957 and 0.889.
